Data as given in PubChem BioAssay AID1259425 (University of Nebraska Medical Center, 2018).
Test: 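Find knockdowns that reproduce the gene expression pattern seen when KSR1 is lost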 (primary screen). Cell system: HCT116 human colon cancer cells. Reagent: siRNA pool against human genes, 50 nM siRNA. Measurement: 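mRNA of six signature genes measured together by branched-DNA assay after 50 nM siRNA pool, blank removed, divided by geometric mean of two housekeeping genes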. Reading the numbers: BNIP3L mRNA: higher = more BNIP3L transcript after knockdown.
Shown is a random part of about 14,000 reagents. Not all columns of the deposit are shown. Not stated in the record: the time to read-out.

MRPL27 (mitochondrial ribosomal protein L27)
- BNIP3L mRNA, set 1: 0.0965

RYR1 (ryanodine receptor 1)
- BNIP3L mRNA, set 1: 0.178

EPCAM (epithelial cell adhesion molecule)
- BNIP3L mRNA, set 1: 0.0587

TNFRSF10B (TNF receptor superfamily member 10b)
- BNIP3L mRNA, set 1: 0.187

BNIP2 (BCL2 interacting protein 2)
- BNIP3L mRNA, set 1: 0.152

HECA (HECA ribonucleoprotein granule regulator)
- BNIP3L mRNA, set 1: 0.0707

INHA (inhibin subunit alpha)
- BNIP3L mRNA, set 1: 0.0548

PSMD6 (proteasome 26S subunit, non-ATPase 6)
- BNIP3L mRNA, set 1: 0.165

ZDHHC12 (zDHHC palmitoyltransferase 12)
- BNIP3L mRNA, set 1: 0.109

CIRBP (cold inducible RNA binding protein)
- BNIP3L mRNA, set 1: 0.137

TMED3 (transmembrane p24 trafficking protein 3)
- BNIP3L mRNA, set 1: 0.479

KREMEN2 (kringle containing transmembrane protein 2)
- BNIP3L mRNA, set 1: 0.067

PLOD2 (procollagen-lysine,2-oxoglutarate 5-dioxygenase 2)
- BNIP3L mRNA, set 1: 0.114

ADCY1 (adenylate cyclase 1)
- BNIP3L mRNA, set 1: 0.0884

UBR2 (ubiquitin protein ligase E3 component n-recognin 2)
- BNIP3L mRNA, set 1: 0.0847

AKAP11 (A-kinase anchoring protein 11)
- BNIP3L mRNA, set 1: 0.315

TRIM11 (tripartite motif containing 11)
- BNIP3L mRNA, set 1: 0.157

ALDH4A1 (aldehyde dehydrogenase 4 family member A1)
- BNIP3L mRNA, set 1: 0.0497

IQCN (IQ motif containing N)
- BNIP3L mRNA, set 1: 0.138

KIF21A (kinesin family member 21A)
- BNIP3L mRNA, set 1: 0.209

LARP4B (La ribonucleoprotein 4B)
- BNIP3L mRNA, set 1: 0.113

ZAN (zonadhesin)
- BNIP3L mRNA, set 1: 0.121

GRM1 (glutamate metabotropic receptor 1)
- BNIP3L mRNA, set 1: 0.103

LPA (lipoprotein(a))
- BNIP3L mRNA, set 1: 0.18

ORMDL2 (ORMDL sphingolipid biosynthesis regulator 2)
- BNIP3L mRNA, set 1: 0.187

AFF1 (ALF transcription elongation factor 1)
- BNIP3L mRNA, set 1: 0.139

EPS15L1 (epidermal growth factor receptor pathway substrate 15 like 1)
- BNIP3L mRNA, set 1: 0.0769

GABRQ (gamma-aminobutyric acid type A receptor subunit theta)
- BNIP3L mRNA, set 1: 0.0563

Part of the list above, reformatted:
{"Target gene":"AKAP11 (A-kinase anchoring protein 11)","BNIP3L mRNA, set 1":0.315}
{"Target gene":"TRIM11 (tripartite motif containing 11)","BNIP3L mRNA, set 1":0.157}
